Consider 16 substances from patent US20200255478A1 (Almirall, S.A., priority 2017, published 2020).

Some peptides are written in HELM: one residue between dots, names in brackets for other building blocks, links after the first $.

One series in a line: general procedure: Fmoc solid-phase peptide synthesis; Fmoc-Rink amide AM PS; DIPCDI with OxymaPure; in some cases HBTU in DIEA. As to conditions: whole synthesis, analytical RP-HPLC.
Take “PEPTIDE1{[XStehee1b45].[XbAh1c76e8].[XPhemhca2af7].D.P.E.T.G.E.C.[am]}$PEPTIDE1,PEPTIDE1,3:R3-10:R3$$$V2.0”: the “final HPLC purity” value came to 99.9%.

Take “PEPTIDE1{[ac].C.D.E.E.T.G.E.C.[am]}|CHEM1{[Binap22]}$PEPTIDE1,CHEM1,2:R3-1:R1|PEPTIDE1,CHEM1,9:R3-1:R2$$$V2.0”: the “final HPLC purity” value came to 99.9%.

Regarding “PEPTIDE1{[ac].[XCysLh45a958].D.[XMeAh0ca967].E.T.G.E.C.[am]}$PEPTIDE1,PEPTIDE1,2:R3-9:R3$$$V2.0”, the “final HPLC purity” value was 99.9%.

On to “PEPTIDE1{[ac].[XCysLhc9e351].D.E.E.T.G.E.C.[am]}$PEPTIDE1,PEPTIDE1,2:R3-9:R3$$$V2.0”, for which the “final HPLC purity” value stood at 98%.

For “{[Acetyl-Cys(&^1)-Asp-Ala-Glu-Thr-Gly-Glu-Cys(&^2)-NH2]-[&^1(1,2-phenylenediyl)dimethylene&^2]}”, the “final HPLC purity” value came to 99.9%.

For the substance “{[Acetyl-Cys(&^1)-Asp-Glu-Glu-Thr-Gly-Glu-Cys(&^2)-NH2][&^1(1,1′-biphenyl)2,2′-diyldimethylene&^2]}”, the “final HPLC purity” value was 99.9%.

Take “{[Stearyl-Ala-Leu-Gln-Cys(&^1)-Asp-Pro-Glu-Thr-Gly-Glu-Cys(&^2)-Leu-Pro-NH2][&^1(1,3,5-nimethylbenzene)2,4-diyldimethylene&^2]}”: the “final HPLC purity” value is 94.5%.

For “{[Stearyl-Ala-Leu-Gln-Cys(&^1)-Asp-Pro-Glu-Thr-Gly-Glu-Cys(&^2)-Leu-Pro-NH2][&^1(3,4,5,6-tenafluorobenzene)1,2-diyldimethylene&^2]}”, the “final HPLC purity” value worked out at 91.7%.

Take “{[Stearyl-Ala-Leu-Gln-Cys(&^1)-Asp-Pro-Glu-Thr-Gly-Glu-Cys(&^2)-MeLeu-Pro-NH2][&^1(1,2-phenylenediyl)dimethylene&^2]}”: the “final HPLC purity” value stood at 99.5%.

The series is the same for the next values; noted with them: whole synthesis, analytical RP-HPLC, trifluoroacetate salt.
As to “{[Acetyl-Cys(&^1)-Asp-Ala-Glu-Thr-Gly-Glu-Cys(&^2)-βAla-Arg-Lys-Lys-Arg-Arg-Gln-Arg-Arg-Arg-NH2][&^1(1,2-phenylenediyl)dimethylene&^2]}”, the “final HPLC purity” value is reported as 99.9%.

As to “{[H-Leu-Gln-Cys(&^1)-Asp-Ala-Glu-Thr-Gly-Glu-Cys(&^2)-Leu-Pro-βAla-Arg-Lys-Lys-Arg-Arg-Gln-Arg-Arg-Arg-NH2][&^1(1,2-phenylenediyl)dimethylene&^2]}”, the “final HPLC purity” value is reported as 99.9%.

For the substance “{[H-Leu-Gln-Cys(&^1)-Asp-Ala-Glu-Thr-Gly-Glu-Cys(&^2)-Leu-Pro-βAla-Arg-Lys-Lys-Arg-Arg-Gln-Arg-Arg-Arg-NH2][&^1(1,3-phenylenediyl)dimethylene&^2]}”, the “final HPLC purity” value is 99.9%.

In the case of “{[H-Leu-Gln-Cys(&^1)-Asp-Ala-Glu-Thr-Gly-Glu-Cys(&^2)-Leu-Pro-βAla-Tyr-Ala-Arg-Ala-Ala-Ala-Arg-Gln-Ala-Arg-Ala-NH2][&^1(1,3-phenylenediyl)dimethylene&^2]}”, the “final HPLC purity” value is recorded as 99.9%.

With “{[H-Leu-Leu-Cys(&^1)-Asp-Pro-Glu-Thr-Gly-Glu-Cys(&^2)-Leu-Leu-βAla-Arg-Lys-Lys-Arg-Arg-Gln-Arg-Arg-Arg-NH2][&^1(naphthalene)2,3-diyldimethylene&^2]}”, the “final HPLC purity” value amounted to 96.0%.

Another series in a line: general procedure: Fmoc solid-phase peptide synthesis; H-Rink amide AM ChemMatrix (0.40 mmol/g); DIPCDI with OxymaPure; in some cases HBTU in DIEA. The conditions noted are these: whole synthesis, analytical RP-HPLC.
For the substance “PEPTIDE1{[Stearyl].P.Q.C.D.P.E.T.G.E.C.L.[dP].[am]}|CHEM1{[oXyl]}$PEPTIDE1,CHEM1,4:R3-1:R1|PEPTIDE1,CHEM1,11:R3-1:R2$$$V2.0”, the “final HPLC purity” value worked out at 94.5%.

A further series is described as follows: general procedure: Fmoc solid-phase peptide synthesis; Fmoc-Rink amide AM ChemMatrix resin (0.49 mmol/g); DIPCDI with OxymaPure; in some cases HBTU in DIEA. As to conditions: whole synthesis, analytical RP-HPLC.
With “PEPTIDE1{[XStehee1b45].[XbAh1c76e8].V.V.[XCysLh45a958].D.P.E.T.G.E.C.V.V.[am]}$PEPTIDE1,PEPTIDE1,5:R3-12:R3$$$V2.0”, the “final HPLC purity” value is 91.7%.
